Assay results taken from publication PMC7790283.

Target: T1, CCCTC-binding factor (CTCF) (human (endogenous in MCF10A)) (UniProt P49711)
T1 sequence: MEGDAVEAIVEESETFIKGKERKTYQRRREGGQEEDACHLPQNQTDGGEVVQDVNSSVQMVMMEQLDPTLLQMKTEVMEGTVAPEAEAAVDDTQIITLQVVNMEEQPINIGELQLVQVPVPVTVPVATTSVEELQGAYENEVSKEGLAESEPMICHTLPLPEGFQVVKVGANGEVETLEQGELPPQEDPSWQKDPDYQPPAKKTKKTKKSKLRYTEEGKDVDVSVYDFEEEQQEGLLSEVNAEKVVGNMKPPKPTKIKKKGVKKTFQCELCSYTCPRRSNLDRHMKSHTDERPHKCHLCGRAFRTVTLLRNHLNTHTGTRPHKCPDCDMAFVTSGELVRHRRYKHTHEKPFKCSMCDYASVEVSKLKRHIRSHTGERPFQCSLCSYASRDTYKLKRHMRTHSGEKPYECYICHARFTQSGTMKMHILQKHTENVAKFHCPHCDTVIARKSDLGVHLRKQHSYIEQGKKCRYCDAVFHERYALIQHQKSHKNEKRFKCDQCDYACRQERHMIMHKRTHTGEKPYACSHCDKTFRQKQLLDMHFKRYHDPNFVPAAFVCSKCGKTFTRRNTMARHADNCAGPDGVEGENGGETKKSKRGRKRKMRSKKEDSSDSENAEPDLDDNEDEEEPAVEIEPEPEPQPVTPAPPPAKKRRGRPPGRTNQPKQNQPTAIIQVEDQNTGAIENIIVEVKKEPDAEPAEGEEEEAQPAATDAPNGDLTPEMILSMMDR
Assay: affinity purification with mass spectrometry; CTCF complexes immunoprecipitated from normal MCF-10A cells with mouse anti-CTCF (B-5; Santa Cruz) or an IgG control; Q Exactive mass spectrometer; false discovery rate 1%

binding: binds
B1: Serine/arginine-rich splicing factor SC-35 (protein, UniProt Q01130 1-221)
chain: MSYGRPPPDVEGMTSLKVDNLTYRTSPDTLRRVFEKYGRVGDVYIPRDRYTKESRGFAFVRFHDKRDAEDAMDAMDGAVLDGRELRVQMARYGRPPDSHHSRRGPPPRRYGGGGYGRRSRSPRRRRRSRSRSRSRSRSRSRSRYSRSKSRSRTRSRSRSTSKSRSARRSKSKSSSVSRSRSRSRSRSRSRSPPPVSKRESKSRSRSKSPPKSPEEEGAVSS

These are yes or no findings as the source states them, for the method shown. Binding seen in cells or lysates may run through a third protein. A yes stands for co-enrichment or nearness to the bait. Other partners may have been found.
